{"source": "paper PMC6092398", "about": "“Revealing circadian mechanisms of integration and resilience by visualizing clock proteins working in real time” (Nature Communications, 2018)", "binders": {"B1": {"name": "KaiA (natural protein, S. elongatus, UniProt Q79PF6 1-284, looked up)", "chain": "MLSQIAICIWVESTAILQDCQRALSADRYQLQVCESGEMLLEYAQTHRDQIDCLILVAANPSFRAVVQQLCFEGVVVPAIVVGDRDSEDPDEPAKEQLYHSAELHLGIHQLEQLPYQVDAALAEFLRLAPVETMADHIMLMGANHDPELSSQQRDLAQRLQERLGYLGVYYKRDPDRFLRNLPAYESQKLHQAMQTSYREIVLSYFSPNSNLNQSIDNFVNMAFFADVPVTKVVEIHMELMDEFAKKLRVEGRSEDILLDYRLTLIDVIAHLCEMYRRSIPRET", "notes": "circadian clock protein KaiA of Synechococcus elongatus, native (unmutated); also called native KaiA; KaiA dimer; source: E. coli BL21 or DH5α, pGEX-based construct, purified (glutathione-agarose, HRV3C cleavage on the column, Q Sepharose); not shown: GST, N-terminal, cleaved"}}, "key": {"[1]": {"molecular_target": "KaiC with deletion of C-terminal tentacles (KaiC-ΔC) (S. elongatus)", "assay": "high-speed atomic force microscopy (HS-AFM); KaiC hexamers immobilised on bare mica (CI end up, C-terminal side attached to the mica), KaiA added to the observation buffer; 20 mM Tris-HCl pH 8.0, 5 mM MgCl2, no ATP, 25-28 °C (Fig. 1a, c); both purified"}, "[2]": {"molecular_target": "KaiC with deletion of C-terminal tentacles (KaiC-ΔC) (S. elongatus)", "assay": "high-speed atomic force microscopy (HS-AFM); KaiC hexamers immobilised on AP-mica (CII end up, C-terminal tentacles exposed), KaiA added to the observation buffer; 20 mM Tris-HCl pH 8.0, 5 mM MgCl2, no ATP, 25-28 °C (Fig. 1b, d); both purified"}}, "note": "No constants are given. Whether binding was seen depends on the method and setting."}
{"binder": "B1", "values": [{"measurement": "binding", "setting": "[1]", "result": "no binding"}, {"measurement": "binding", "setting": "[2]", "result": "no binding"}]}
